# In patent US8846696B2, “Purine derivatives” (Cyclacel Limited, priority 2002, dated 2014):
# Legend:
# Assay type in all cases: cell-based
# [1] = tested on: HT-29; assay: 72-h MTT assay HT-29; conditions: Homo sapiens, HT-29, 72 h, read-out: 72-h MTT IC50
# Procedure: (§1) The cell lines were obtained from the ATCC (American Type Culture Collection, 10801 University Boulevard, Manessas, Va. 20110-2209, USA). Standard 72-h MTT (thiazolyl blue; 3-[4,5-dimethylthiazol-2-yl]-2,5-diphenyltetrazolium bromide) assays were performed (Haselsberger, K.; Peterson, D. C.; Thomas, D. G.; Darling, J. L. Anti Cancer Drugs 1996, 7, 331-8; Loveland, B. E.; Johns, T. G.; Mackay, I. R.; Vaillant, F.; Wang, Z. X.; Hertzog, P. J. Biochemistry International 1992, 27, 501-10). In short: cells were seeded into 96-well plates according to doubling time and incubated overnight at 37° C. Test compounds were made up in DMSO and a ⅓ dilution series prepared in 100 μL cell media, added to cells (in triplicates) and incubated for 72 ho at 37° C. MTT was made up as a stock of 5 mg/mL in cell media and filter-sterilised. Media was removed from cells followed by a wash with 200 μL PBS. MTT solution was then added at 20 μL per well and incubated in the dark at 37° C. for 4 h. MTT solution was removed and cells again washed with 200 μL PBS. MTT dye was solubilised with 200 μL per well of DMSO with agitation.
# (§2) Representative compounds of this invention were examined for their anti-proliferative effect against human tumour cell lines and immortalized non-transformed human cell lines (“normal” cell lines). […].
# [2] = tested on: A549; assay: 72-h MTT assay A549; conditions: Homo sapiens, A549, 72 h, read-out: 72-h MTT IC50
# Procedure: as §1, §2
# [3] = tested on: IMR90; assay: 72-h MTT assay IMR90; conditions: Homo sapiens, IMR-90, 72 h, read-out: 72-h MTT IC50
# Procedure: as §1, §2
# [4] = tested on: cancer cell lines; assay: 72-h MTT assay, mean of cancer cell lines; conditions: Homo sapiens, read-out: 72-h MTT IC50, Mean (cancer cell lines)
# Procedure: as §1, §2
# [5] = tested on: HL-60; assay: 72-h MTT assay HL-60; conditions: Homo sapiens, HL-60, 72 h, read-out: 72-h MTT IC50
# Procedure: as §1, §2
# [6] = tested on: normal cell lines; assay: 72-h MTT assay, mean of normal cell lines; conditions: Homo sapiens, read-out: 72-h MTT IC50, Mean (normal cell lines)
# Procedure: as §1, §2
# [7] = tested on: WI38; assay: 72-h MTT assay WI38; conditions: Homo sapiens, WI-38, 72 h, read-out: 72-h MTT IC50
# Procedure: as §1, §2
# [8] = tested on: MCF7; assay: 72-h MTT assay MCF7; conditions: Homo sapiens, MCF7, 72 h, read-out: 72-h MTT IC50
# Procedure: as §1, §2
# [9] = tested on: Hs27; assay: 72-h MTT assay Hs27; conditions: Homo sapiens, HS27, 72 h, read-out: 72-h MTT IC50
# Procedure: as §1, §2
# [10] = tested on: K-562; assay: 72-h MTT assay K-562; conditions: Homo sapiens, K562, 72 h, read-out: 72-h MTT IC50
# Procedure: as §1, §2
# [11] = tested on: CCRF-CEM; assay: 72-h MTT assay CCRF-CEM; conditions: Homo sapiens, read-out: 72-h MTT IC50
# Procedure: as §1, §2
# [12] = tested on: HeLa; assay: 72-h MTT assay HeLa; conditions: Homo sapiens, read-out: 72-h MTT IC50
# Procedure: as §1, §2
# [13] = tested on: representative panel of human transformed tumour cell lines; assay: Anti-proliferative activity in a representative panel of human transformed tumour cell lines; conditions: average over representative panel of human transformed tumour cell lines
smiles,measurement,setting,value
"CC[C@H](CO)Nc1nc(NCc2ccccc2)c2ncn(C(C)C)c2n1 [Roscovitine, roscovitine, reference compound]",IC50,[1],10.2 ± 2.7 µM
same,IC50,[2],9.7 ± 1.1 µM
same,IC50,[3],> 20 µM
same,IC50,[4],16.3 ± 10.2 µM
same,IC50,[5],13.3 ± 1.1 µM
same,IC50,[6],> 20 µM
same,IC50,[7],> 20 µM
same,IC50,[8],8.7 ± 0.5 µM
same,IC50,[9],> 20 µM
same,IC50,[10],40.4 ± 4.4 µM
same,IC50,[11],16.4 ± 0.8 µM
same,IC50,[12],16.5 ± 1.8 µM
same,IC50,[13],~10 µM
